All values are for the listed drug together with GW9662 (10 µM): O=C(Nc1ccccc1)c1cc([N+](=O)[O-])ccc1Cl

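Human melanoma cell lines in 1,536-well plates were treated with a pair of drugs for 72 h, then fixed, stained and imaged. The read-out is the fraction of cleaved-PARP-positive nuclei, in % of that fraction in the DMSO control; 200 means twice the control level of this apoptosis marker. Concentrations were fixed for each drug; these are the higher of two levels. No replicate spread is given; individual values may be noisy. Basal and induced levels differ widely between cell lines.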
This is part of the screen, not chosen by result.
An entry leaves out what has no value listed here.
A dash means that no value is listed here.

For NC(=O)c1ccc(N(C(N)=O)c2c(F)cccc2F)nc1-c1ccc(F)cc1F at 2 µM the values were MeWo: 296; 501mel: 194; COLO 829: 58.6; A101D: 153; SK-MEL-5: 138; LB2518-MEL: 126; WM451Lu: 467; IST-MEL1: 140.
For CCN(CC)CCNC(=O)c1c(C)[nH]c(/C=C2\C(=O)Nc3ccc(F)cc32)c1C at 2 µM the values were MeWo: 168; COLO 829: 85.5; A101D: 267; SK-MEL-5: 175; WM451Lu: 671; IST-MEL1: 268.
For CC(=O)c1c(C)c2cnc(Nc3ccc(N4CCNCC4)cn3)nc2n(C2CCCC2)c1=O at 0.2 µM the values were MeWo: 298; 501mel: 86.4; COLO 829: 144; A101D: 164; SK-MEL-5: 131; LB2518-MEL: 180; WM451Lu: 216; IST-MEL1: 56.6.
For CC(=O)O[C@@]12CO[C@@H]1C[C@H](O)[C@@]1(C)C(=O)[C@H](O)C3=C(C)[C@@H](OC(=O)[C@H](O)[C@@H](NC(=O)OC(C)(C)C)c4ccccc4)C[C@@](O)([C@@H](OC(=O)c4ccccc4)[C@H]21)C3(C)C at 0.0005 µM the values were MeWo: 1180; 501mel: 215; COLO 829: 336; A101D: 299; SK-MEL-5: 332; LB2518-MEL: 701; WM451Lu: 3030; IST-MEL1: 221.
For CC(C)C[C@H](NC(=O)[C@H](Cc1ccccc1)NC(=O)c1cnccn1)B(O)O at 0.005 µM the values were MeWo: 3130; 501mel: 4150; COLO 829: 2450; A101D: 267; SK-MEL-5: 461; LB2518-MEL: 5090; WM451Lu: 1590; IST-MEL1: 391.
For CN(C)S(=O)(=O)c1ccc2c(c1)/C(=C/c1cc3c([nH]1)CCCC3)C(=O)N2 at 2 µM the values were MeWo: 135; 501mel: 74.4; COLO 829: 210; A101D: 75.9; SK-MEL-5: 138; LB2518-MEL: 109; WM451Lu: 260; IST-MEL1: 234.
For Cn1c(Nc2ccc(C(F)(F)F)cc2)nc2cc(Oc3ccnc(-c4ncc(C(F)(F)F)[nH]4)c3)ccc21 at 0.4 µM the values were MeWo: 166; 501mel: 599; COLO 829: 290; A101D: 204; SK-MEL-5: 2210; LB2518-MEL: 107; WM451Lu: 414; IST-MEL1: 63.0.
For C[C@@H](Oc1cc(-c2cnn(C3CCNCC3)c2)cnc1N)c1c(Cl)ccc(F)c1Cl at 1 µM the values were MeWo: 126; COLO 829: 210; A101D: 239; SK-MEL-5: 108; WM451Lu: 206; IST-MEL1: 49.4.
For Cc1cc(Nc2cc(N3CCN(C)CC3)nc(Sc3ccc(NC(=O)C4CC4)cc3)n2)n[nH]1 at 0.03 µM the values were MeWo: 171; 501mel: 65.6; COLO 829: 232; A101D: 94.3; SK-MEL-5: 97.2; LB2518-MEL: 123; WM451Lu: 150; IST-MEL1: 86.0.
For Cc1ccc(NC(=O)c2cccc(N(C)C)c2)cc1NC(=O)c1ccc(O)cc1 at 10 µM the values were MeWo: 165; 501mel: 197; COLO 829: 134; A101D: 190; SK-MEL-5: 60.7; LB2518-MEL: 521; WM451Lu: 65.1; IST-MEL1: 118.
For Cc1cc(SCc2sc(-c3ccc(C(F)(F)F)c(F)c3)nc2C)ccc1OCC(=O)O at 10 µM the values were MeWo: 140; 501mel: 138; COLO 829: 204; A101D: 68.4; SK-MEL-5: 163; LB2518-MEL: 398; WM451Lu: 49.7; IST-MEL1: 58.6.
For O=C(Nc1cc(C(F)(F)F)cc(C(F)(F)F)c1)c1cc(Cl)ccc1O at 0.08 µM the values were MeWo: 60.9; 501mel: 233; COLO 829: 53.3; A101D: 69.6; SK-MEL-5: 78.1; LB2518-MEL: 63.0; WM451Lu: 78.5; IST-MEL1: 148.
For Nc1ccn([C@@H]2O[C@H](CO)[C@@H](O)C2(F)F)c(=O)n1 at 0.002 µM the values were MeWo: 116; COLO 829: 488; A101D: 293; SK-MEL-5: 91.9; WM451Lu: 1450; IST-MEL1: 312.
For O=C(Oc1ccc([N+](=O)[O-])cc1)N1CCC(C(O)(c2ccc3c(c2)OCO3)c2ccc3c(c2)OCO3)CC1 at 5 µM the values were MeWo: 132; 501mel: 111; COLO 829: 174; A101D: 203; SK-MEL-5: 162; LB2518-MEL: 72.6; WM451Lu: 159; IST-MEL1: 94.0.
For COc1cc(N2CCC(N3CCN(C)CC3)CC2)ccc1Nc1ncc(Cl)c(Nc2ccccc2S(=O)(=O)C(C)C)n1 at 0.4 µM the values were MeWo: 39.7; 501mel: 107; COLO 829: 387; A101D: 117; SK-MEL-5: 56.3; LB2518-MEL: 190; WM451Lu: 104; IST-MEL1: 63.0.
For CCCCCCCCCCCC1=C(O)C(=O)C=C(O)C1=O at 6 µM the values were MeWo: 143; 501mel: 45.8; COLO 829: 210; A101D: 112; SK-MEL-5: 120; LB2518-MEL: 92.1; WM451Lu: 102; IST-MEL1: 82.5.
For O=c1cc(-c2cccc3c2Sc2ccccc2S3)oc(N2CCOCC2)c1 at 5 µM the values were MeWo: 120; 501mel: 218; COLO 829: 123; A101D: 75.1; SK-MEL-5: 46.1; LB2518-MEL: 170; WM451Lu: 182; IST-MEL1: 61.0.
For C[C@]1(O)C[C@@H](c2nc(-c3ccc4ccc(-c5ccccc5)nc4c3)c3c(N)nccn32)C1 at 2 µM the values were MeWo: 258; 501mel: 670; COLO 829: 85.0; A101D: 85.6; SK-MEL-5: 247; LB2518-MEL: 111; WM451Lu: 188; IST-MEL1: 55.1.
For N#Cc1c(O)c2c(-c3ccc(-c4ccccc4O)cc3)csc2[nH]c1=O at 10 µM the values were MeWo: 56.1; 501mel: 78.2; COLO 829: 113; A101D: 158; SK-MEL-5: 25.8; LB2518-MEL: 70.4; WM451Lu: 124; IST-MEL1: 56.4.
For O=C(O)c1ccc2c(c1)nc(Nc1cccc(Cl)c1)c1ccncc12 at 2 µM the values were MeWo: 177; 501mel: 58.9; COLO 829: 368; A101D: 252; SK-MEL-5: 123; LB2518-MEL: 34.4; WM451Lu: 370; IST-MEL1: 169.
For COc1ccc(-c2ccc3c(N4CCOCC4)nc(N4C[C@@H](C)O[C@@H](C)C4)nc3n2)cc1CO at 0.1 µM the values were MeWo: 104; COLO 829: 195; A101D: 32.7; SK-MEL-5: 150; WM451Lu: 224; IST-MEL1: 59.8.
For Cn1cnc2c(F)c(Nc3ccc(Br)cc3Cl)c(C(=O)NOCCO)cc21 at 0.075 µM the values were MeWo: 111; 501mel: 687; COLO 829: 160; A101D: 147; SK-MEL-5: 105; LB2518-MEL: 313; WM451Lu: 797; IST-MEL1: 76.4.
For C[As](C)SC[C@H](NC(=O)CC[C@H](N)C(=O)O)C(=O)NCC(=O)O at 2 µM the values were MeWo: 168; 501mel: 147; COLO 829: 153; A101D: 46.1; SK-MEL-5: 56.7; LB2518-MEL: 86.5; WM451Lu: 684; IST-MEL1: 7520.
For C#Cc1cccc(Nc2ncnc3cc(OCCOC)c(OCCOC)cc23)c1 at 4 µM the values were MeWo: 98.6; 501mel: 173; COLO 829: 256; A101D: 61.9; SK-MEL-5: 182; LB2518-MEL: 136; WM451Lu: 220; IST-MEL1: 110.
For NCC(=O)Nc1ccc(-n2nc(C(F)(F)F)cc2-c2ccc3c(ccc4ccccc43)c2)cc1 at 5 µM the values were MeWo: 87.9; 501mel: 2980; COLO 829: 258; A101D: 123; SK-MEL-5: 280; LB2518-MEL: 77.6; WM451Lu: 793; IST-MEL1: 65.7.
For Oc1cc(-c2nc(-c3ccccc3)[nH]c2-c2ccncc2)ccc1Cl at 1 µM the values were MeWo: 116; 501mel: 70.4; COLO 829: 204; A101D: 61.2; SK-MEL-5: 122; LB2518-MEL: 97.0; WM451Lu: 1630; IST-MEL1: 35.4.
For O=S(=O)(c1ccccc1)N(CC(F)(F)F)c1ccc(C(O)(C(F)(F)F)C(F)(F)F)cc1 at 7 µM the values were MeWo: 64.5; COLO 829: 159; A101D: 238; SK-MEL-5: 49.8; WM451Lu: 142; IST-MEL1: 64.4.

Repeated from the top, 2 entries:

Second drug,MeWo,501mel,COLO 829,A101D,SK-MEL-5,LB2518-MEL,WM451Lu,IST-MEL1
NC(=O)c1ccc(N(C(N)=O)c2c(F)cccc2F)nc1-c1ccc(F)cc1F at 2 µM,296,194,58.6,153,138,126,467,140
CCN(CC)CCNC(=O)c1c(C)[nH]c(/C=C2\C(=O)Nc3ccc(F)cc32)c1C at 2 µM,168,-,85.5,267,175,-,671,268

Values as published with doi:10.1371/journal.pone.0140310, rounded.